The series relates to YlMhb1p (YlMhb1noMP) (Yarrowia lipolytica). The experiment in a line: EMSA. The note with it: EMSA: 20 mM Tris/HCl pH 7.5, 1 mM EDTA, 50 mM NaCl, 100 ug/ml BSA, 3 nM DNA, 10 min 30 C, gel 0.5x TBE 4 C, recombinant protein, protein details: GST removed with PreScission protease (pGEX-6P-2), label: 32P.

Construct, isoform or probe ends are uncertain for at least one entry. Negatives hold for the conditions tested. The comparison behind a weaker result is the experiment's own reference, which may not be listed here.

Take “GGAGCAGGTATTGGTATTGCTATCG (double strand) [25 bp atp9 dsDNA]”: where the note is “very weak, 5' end of S8”, the binding result was “binds more weakly”.

For the sequence “GGAGCAGGTATTGGT (double strand) [15 bp atp9 dsDNA]”, the binding result (5' end of S6) is given as “no binding”.

These data come from publication PMC4725248, “Yeast mitochondrial HMG proteins”.
